No constants are given. Whether binding was seen depends on the method and setting. In cells and extracts the contact can be indirect. A result given as binding can be weak or reduced; the word gives no strength.
Target: T1, Retinoblastoma protein (Rb), endogenous (human (endogenous in MCF7 and MDA-MB-453)) (UniProt P06400)
T1 sequence: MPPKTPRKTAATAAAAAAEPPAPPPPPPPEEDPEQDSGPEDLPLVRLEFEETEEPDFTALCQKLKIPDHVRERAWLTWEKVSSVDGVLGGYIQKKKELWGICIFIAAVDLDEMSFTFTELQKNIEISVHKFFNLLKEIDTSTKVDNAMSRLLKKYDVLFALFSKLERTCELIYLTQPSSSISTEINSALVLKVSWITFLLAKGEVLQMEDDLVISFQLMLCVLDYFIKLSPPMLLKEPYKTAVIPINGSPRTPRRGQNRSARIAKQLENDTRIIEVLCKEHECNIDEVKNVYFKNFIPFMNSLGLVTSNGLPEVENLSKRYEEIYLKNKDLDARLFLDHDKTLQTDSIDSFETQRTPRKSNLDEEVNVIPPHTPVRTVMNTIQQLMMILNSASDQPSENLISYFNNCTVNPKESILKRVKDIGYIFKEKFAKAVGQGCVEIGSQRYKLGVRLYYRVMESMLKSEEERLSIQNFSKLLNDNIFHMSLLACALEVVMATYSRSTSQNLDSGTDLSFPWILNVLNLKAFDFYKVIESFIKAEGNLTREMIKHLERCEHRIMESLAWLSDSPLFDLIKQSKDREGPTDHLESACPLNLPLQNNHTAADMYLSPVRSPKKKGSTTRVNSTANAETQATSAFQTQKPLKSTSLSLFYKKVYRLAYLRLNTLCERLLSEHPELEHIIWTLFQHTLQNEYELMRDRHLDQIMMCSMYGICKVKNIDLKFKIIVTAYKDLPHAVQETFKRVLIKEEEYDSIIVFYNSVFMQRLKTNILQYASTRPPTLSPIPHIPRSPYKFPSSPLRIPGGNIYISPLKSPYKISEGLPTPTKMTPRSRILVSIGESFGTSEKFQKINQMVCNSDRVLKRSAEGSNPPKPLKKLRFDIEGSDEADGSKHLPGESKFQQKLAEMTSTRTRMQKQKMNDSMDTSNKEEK
Test: co-IP; extracts of MCF7 cells, endogenous proteins; immunoprecipitated with Rb, CBP, FoxM1 or P3 (phospho-FoxM1) antibody; blots with pan-FoxM1, P3, CBP, Rb, DNMT3b antibodies; in one panel cells treated with BI 2536 (100 nM, 24 h) or DMSO

For “FoxM1, endogenous (detected with pan-FoxM1 antibody) (human (endogenous in MCF7))”, the binding was “binds”.

Reference: PMC5384083
